# Not every detail of the peptide structures is certain; ends, links or a residue may be inferred. Bridges are numbered along the chain shown (N, C = ends). Where no end group is shown, it is not given here.
# System: Sprague-Dawley rats made diabetic with streptozotocin
# Assay: Pharmacodynamics after subcutaneous injection in a rat model of diabetes mellitus (blood-glucose concentration over time)
# Format: in vivo
# Details: dose equivalent in nanomoles to 15 μg insulin lispro per 300-gram rat, relative to insulin lispro, FIG. 6
sequence,measurement,value
"FVNQHLCGSHLVEALYLVCGERGFFYTDPTEEGPRRGIVEQCCHSICSLEQLENYCN (disulfide 7-43, 19-56, 42-47) [SCI-2, reference compound]",offset of action / duration of action (tail of insulin action),prolonged tail of insulin action
same,onset of action,rapid onset of action (similar to insulin lispro)

# Source: US20220002373A1, “SINGLE-CHAIN INSULIN ANALOGUES WITH POLY-ALANINE C-DOMAIN SUB-SEGMENTS” (CASE WESTERN RESERVE UNIVERSITY, priority 2018, published 2022)
